Values from PubChem BioAssay AID1259425 (University of Nebraska Medical Center, 2018)
Aim: 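Compare each knockdown with KSR1 silencing using changes in marker transcripts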 (primary screen). Cell system: HCT116 human colon cancer cells. Knock-down reagent: siRNA pool against human genes, 50 nM siRNA. Measured: 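After 50 nM siRNA pool, branched-DNA assay measures six marker transcripts per well, minus blank, normalised to the geometric mean of two housekeeping transcripts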. Reading the numbers: BNIP3L mRNA: higher = more BNIP3L transcript after knockdown; NDRG1 mRNA: higher = more NDRG1 transcript after knockdown.
In all, the deposit lists about 14,000 reagents; this is a random part of them. A reagent listed more than once was tested more than once; the source does not tell the runs apart. Further read-outs or replicates are left out here. No sequences are given here. Not given: the time to read-out.

After knock-down of AAAS, the record shows BNIP3L mRNA, set 1 = 0.136; NDRG1 mRNA, set 1 = 0.184.
CXCL1 gave BNIP3L mRNA, set 1 = 0.121; NDRG1 mRNA, set 1 = 0.243.
Silencing of MYO5B came out at: BNIP3L mRNA, set 1 = 0.13; NDRG1 mRNA, set 1 = 0.125.
Against ATAD1, the values are BNIP3L mRNA, set 1 = 0.0645; NDRG1 mRNA, set 1 = 0.384.
For SCYL3 the deposit lists BNIP3L mRNA, set 1 = 0.056; NDRG1 mRNA, set 1 = 0.289.
TRAF5 gave BNIP3L mRNA, set 1 = 0.119; NDRG1 mRNA, set 1 = 0.122.
Against PPM1A, the entry reads BNIP3L mRNA, set 1 = 0.0433; NDRG1 mRNA, set 1 = 0.0948.
Silencing of PIK3CB gave: BNIP3L mRNA, set 1 = 0.146; NDRG1 mRNA, set 1 = 0.319.
Silencing of PIK3CB gave: BNIP3L mRNA, set 1 = 0.132; NDRG1 mRNA, set 1 = 0.307.
ZBP1 showed BNIP3L mRNA, set 1 = 0.17; NDRG1 mRNA, set 1 = 0.201.
After knock-down of HSPA14, the screen gave BNIP3L mRNA, set 1 = 0.212; NDRG1 mRNA, set 1 = 0.121.
Silencing of KIR3DL3 resulted in: BNIP3L mRNA, set 1 = 0.0532; NDRG1 mRNA, set 1 = 0.0608.

Only “NDRG1 mRNA, set 1” (4 entries from above):
AAAS = 0.184
CXCL1 = 0.243
MYO5B = 0.125
ATAD1 = 0.384

More reagents follow.
Silencing of CYB5B came out at: BNIP3L mRNA, set 1 = 0.137; NDRG1 mRNA, set 1 = 0.346.
Knock-down of PON2 resulted in: BNIP3L mRNA, set 1 = 0.0592; NDRG1 mRNA, set 1 = 0.128.
After knock-down of PTP4A2, the screen gave BNIP3L mRNA, set 1 = 0.0698; NDRG1 mRNA, set 1 = 0.078.
Knock-down of HSPA1B gave: BNIP3L mRNA, set 1 = 0.146; NDRG1 mRNA, set 1 = 0.186.
With knock-down of PPP1R2C the results were BNIP3L mRNA, set 1 = 0.113; NDRG1 mRNA, set 1 = 0.192.
Depletion of TLE3 gave: BNIP3L mRNA, set 1 = 0.19; NDRG1 mRNA, set 1 = 0.364.
With knock-down of ATG4B, the screen gave BNIP3L mRNA, set 1 = 0.118; NDRG1 mRNA, set 1 = 0.0706.
Depletion of IFI6 resulted in: BNIP3L mRNA, set 1 = 0.131; NDRG1 mRNA, set 1 = 0.15.
Against GTF3C2 the deposit lists BNIP3L mRNA, set 1 = 0.0519; NDRG1 mRNA, set 1 = 0.142.
After knock-down of SCNN1D, the record shows BNIP3L mRNA, set 1 = 0.167; NDRG1 mRNA, set 1 = 0.0823.
Knock-down of UTF1 resulted in: BNIP3L mRNA, set 1 = 0.144; NDRG1 mRNA, set 1 = 0.144.
For KCNJ6, the entry reads BNIP3L mRNA, set 1 = 0.119; NDRG1 mRNA, set 1 = 0.317.
FGF17 showed BNIP3L mRNA, set 1 = 0.104; NDRG1 mRNA, set 1 = 0.145.
After knock-down of RNMT the results were BNIP3L mRNA, set 1 = 0.0783; NDRG1 mRNA, set 1 = 0.217.
OSMR showed BNIP3L mRNA, set 1 = 0.0758; NDRG1 mRNA, set 1 = 0.144.
Depletion of SYT4 gave: BNIP3L mRNA, set 1 = 0.0908; NDRG1 mRNA, set 1 = 0.181.
Against CHD1L, the entry reads BNIP3L mRNA, set 1 = 0.103; NDRG1 mRNA, set 1 = 0.169.
Depletion of MYBPC2 gave: BNIP3L mRNA, set 1 = 0.212; NDRG1 mRNA, set 1 = 0.828.
Against MTF2, the values are BNIP3L mRNA, set 1 = 0.136; NDRG1 mRNA, set 1 = 0.0477.
Knock-down of ALDH1L1 gave: BNIP3L mRNA, set 1 = 0.124; NDRG1 mRNA, set 1 = 0.402.
Silencing of FRMD4A resulted in: BNIP3L mRNA, set 1 = 0.134; NDRG1 mRNA, set 1 = 0.46.
Knock-down of CXXC5 gave: BNIP3L mRNA, set 1 = 0.103; NDRG1 mRNA, set 1 = 0.317.
After knock-down of MTMR10 the results were BNIP3L mRNA, set 1 = 0.0861; NDRG1 mRNA, set 1 = 0.297.
PSG4 gave BNIP3L mRNA, set 1 = 0.147; NDRG1 mRNA, set 1 = 0.453.
